Experimental data: PubChem BioAssay AID1224830 (NIAID, 2016)

Aim: 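Regulators of TLR4 signalling towards TNF-alpha in macrophage-like cells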 (primary screen)
Cell system: human THP-1 monocytic leukaemia cells, TNF dual-luciferase reporter clone, PMA-differentiated to macrophage-like cells
Reagent: siRNA pool against human genes, 50 nM
Timing: LPS for 4 h, given about 3 days after siRNA transfection
Treatment: bacterial LPS (TLR4 ligand), 10 ng/ml
Measurement: 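Ratio of firefly to renilla light, scaled to the plate median and expressed as a robust z-score per replicate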
Direction: TNF reporter robust z-score: higher = stronger TNF reporter response to LPS
Call rule: 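Each well counts as active if its z-score is over 2.8 or under -1.5; controls are left without a call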
In all, the deposit lists about 18,000 reagents; shown is an unselected part. About 2,900 of them (16%) count as active. 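Calls are made per well; low scores hint the gene aids the LPS response, high scores that it dampens it.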 Repeated entries: four replicate wells of each siRNA pool.

gene | TNF reporter robust z-score | activity call
SLC2A2 | 0.11 | inactive
SLC2A2 | 0.76 | inactive
SLC2A2 | -0.46 | inactive
SLC2A2 | 1.95 | inactive
STX1B | -0.93 | inactive
STX1B | -1.08 | inactive
STX1B | -0.95 | inactive
STX1B | -1.62 | active
BYSL | 0.14 | inactive
BYSL | -0.13 | inactive
BYSL | 0.3 | inactive
BYSL | 0.01 | inactive
PSG2 | -1.37 | inactive
PSG2 | -0.9 | inactive
PSG2 | -0.28 | inactive
PSG2 | -1.05 | inactive
SNX3 | 0.38 | inactive
SNX3 | 1.42 | inactive
SNX3 | -1 | inactive
SNX3 | -0.65 | inactive
TBC1D2 | 1.62 | inactive
TBC1D2 | 1.23 | inactive
TBC1D2 | 1.9 | inactive
TBC1D2 | 1.09 | inactive
HCAR2 | -0.82 | inactive
HCAR2 | -0.99 | inactive
HCAR2 | -1.34 | inactive
HCAR2 | -0.2 | inactive
VGF | -0.6 | inactive
VGF | -0.48 | inactive
VGF | -0.86 | inactive
VGF | -0.62 | inactive
CNTN6 | -0.48 | inactive
CNTN6 | -0.36 | inactive
CNTN6 | 0.06 | inactive
CNTN6 | 1.46 | inactive
CTH | 0.11 | inactive
CTH | 0.26 | inactive
CTH | 0.22 | inactive
CTH | -0.61 | inactive
SNURF | -1.1 | inactive
SNURF | -0.8 | inactive
SNURF | -1.04 | inactive
SNURF | -1.16 | inactive
ENTPD5 | -0.56 | inactive
ENTPD5 | -0.59 | inactive
ENTPD5 | -1.38 | inactive
ENTPD5 | -0.53 | inactive

Entries listed so far whose gene name begins with C or c:
gene | TNF reporter robust z-score | activity call
CNTN6 | -0.48 | inactive
CNTN6 | -0.36 | inactive
CNTN6 | 0.06 | inactive
CNTN6 | 1.46 | inactive
CTH | 0.11 | inactive
CTH | 0.26 | inactive
CTH | 0.22 | inactive
CTH | -0.61 | inactive
